# Reference: paper PMC12040169 (PLOS Biology, 2025)
# Some of the results follow.
# Test system: T1, CTL2-GFP (C. trachomatis L2/434/Bu, GFP-expressing)
# T1 construct: L2/434/Bu, GFP-expressing
# Parameters: species or system HeLa; Intracellular C. trachomatis growth in HeLa cells, bulk GFP fluorescence relative to DMSO
# Conditions: bulk GFP, single well; 28.5 h, 10 µM; inhibitor
row,Compound,% of control remaining
1,CC(NC(=O)N(Cc1ccccc1C(F)(F)F)CC(C)(C)CN)c1cccc2ccccc12 (stereo not shown) [CBK002422C],46.4836%
2,COc1ccccc1CNC(=O)c1cc(-c2ccccc2)nc2ccccc12 [CBK294458],122.724%
3,CN(C)CCCN(Cc1cnn(C)c1)Cc1ccco1 [CBK283039],110.047%
4,Nc1ncc(-c2ccoc2)nc1-c1ccc(F)c(Cl)c1 [CBK063982],140.17%
5,COCc1cccc(-c2nccnc2OCC(=O)OC)c1 [CBK106976],114.528%
6,Cc1cccc(C(=O)N2CCCC(C)C2)c1 (stereo not shown) [CBK074057],111.162%
7,COc1ccc([C@H](O)[C@@H]2CCCN(C(=O)OC(C)(C)C)C2)cc1 [CBK284311],118.144%
8,CN(C)CCNC(=O)c1ccc2[nH]ccc2c1 [CBK149062],91.839%
9,CS(=O)(=O)N[C@H]1C[C@H]2C(=O)Nc3cc(Cl)ccc3C(=O)N2C1 [CBK289363],146.994%
10,COc1cc(Nc2nc(-c3ccccc3F)cn3ccnc23)cc(OC)c1OC [CBK037301],115.03%
11,COc1ccc(CNC(=O)Cn2nnc(-c3ccc(NC(=O)C4CCCCC4)cc3)n2)cc1 [CBK135876],96.6246%
12,CN1CCN(C(=O)c2[nH]c3ccccc3c2NS(=O)(=O)Cc2ccccc2[N+](=O)[O-])CC1 [CBK050059],126.513%
13,OCCN1CCN(c2nccnc2-c2cccs2)CC1 [CBK088811],124.681%
14,OC[C@H]1OCC[C@H]1O [CBK201263],105.831%
15,Cc1c(Cl)cccc1S(=O)(=O)Nc1ccsc1C(=O)O [CBK004549],102.588%
16,COc1ccc(-c2c(C(F)(F)F)oc3cc(OC(=O)c4cccc(C)c4)ccc3c2=O)cc1OC [CBK263907],91.018%
17,COCCNC(=O)Cn1c(-c2cccs2)cc2cccnc21 [CBK282554],89.554%
18,O=C(NCc1ccc(F)cc1)c1ccc(=O)n(CC(=O)N2CCC3(CCCCC3)C2)c1 [CBK286021],103.684%
19,COCCn1ccc(NC(=O)N2CCCC(c3cc(F)ccc3F)C2)n1 (stereo not shown) [CBK305451],131.75%
20,O=C1NCC(c2ccccc2)C1C(=O)N/N=C\c1cc(O)ccc1[N+](=O)[O-] (stereo not shown) [CBK262772],119.792%
21,Cc1cc(N2CCN(Cc3nc(C(C)(C)C)no3)CC2)nc(C(C)C)n1 [CBK305333],97.0638%
22,COc1ccc(Br)cc1S(=O)(=O)Nc1c(C(=O)O)[nH]c2ccccc12 [CBK049887],108.156%
23,CN(CC(=O)NNC(=O)c1cccnc1)S(=O)(=O)c1cc(Cl)ccc1Cl [CBK267388],125.724%
24,Cc1cc(NC(=O)C2CCN(C(=O)CNc3ccccc3)CC2)no1 [CBK304297C],119.846%
25,O=C(Nc1nnc(-c2ccccc2)o1)c1nc2ccccc2s1 [CBK287595],136.622%
26,O=C(NCCc1c[nH]c2ccc(Cl)cc12)c1ccc(Br)cc1Cl [CBK159762],55.0814%

# Copied from the list:
# % of control remaining with COCCNC(=O)Cn1c(-c2cccs2)cc2cccnc21 [CBK282554] is entered as 89.554%
# % of control remaining with CN1CCN(C(=O)c2[nH]c3ccccc3c2NS(=O)(=O)Cc2ccccc2[N+](=O)[O-])CC1 [CBK050059] is entered as 126.513%
# % of control remaining with COc1ccccc1CNC(=O)c1cc(-c2ccccc2)nc2ccccc12 [CBK294458] is entered as 122.724%
# % of control remaining with CC(NC(=O)N(Cc1ccccc1C(F)(F)F)CC(C)(C)CN)c1cccc2ccccc12 (stereo not shown) [CBK002422C] is entered as 46.4836%

# Additional compounds follow.

row,Compound,% of control remaining
1,CC(C)C(=O)NC(C)c1nc(-c2ccncc2)n[nH]1 (stereo not shown) [CBK104021],106.811%
2,Cc1ccc2c(c1)N(CCO)C(C)(C)CC2C (stereo not shown) [CBK006567],107.212%
3,c1ccc(-c2nc3ccccc3nc2N2CCNCC2)cc1 [CBK269574C],175.838%
4,COc1cccc(CNc2ccc(-c3nc4ncccc4o3)cc2)c1OC [CBK269716],140.199%
5,NC(=O)c1cccc(-c2nccnc2NCCO)c1 [CBK088993],182.141%
6,CS(=O)(=O)N1CCN(c2ccc(NC(=O)CSc3nc(-c4ccccc4)cs3)cc2)CC1 [CBK267934],132.503%
7,CC(C)(C)SCC(=O)c1ccc2c(c1)CCC(=O)N2 [CBK006168],107.64%
8,Nc1ncc(-c2ccsc2)c2cccnc12 [CBK067580],149.686%
9,Cc1ccc(NC(=O)CCN2C(=O)c3cccc([N+](=O)[O-])c3C2=O)c(Br)c1 [CBK263172],118.285%
10,CCOc1ccc(-c2cc(C(=O)Nc3cccc(C(=O)O)c3)no2)cc1 [CBK299776],146.53%
11,CNS(=O)(=O)c1ccc2c3c(cccc13)C(=O)N2 [CBK287275],144.13%
12,C=CCNc1nccnc1-c1cccc(O)c1 [CBK088505],100%
13,O=C(CSc1ccc(Br)cc1)NCc1ccco1 [CBK269701],137.345%
14,Cc1ccc(CNC(=O)CSc2nc(N)n[nH]2)cc1 [CBK267914],115.651%
15,CN(C)c1ccc(-n2ncc(-c3ccsc3)n2)cc1 [CBK112845],175.604%
16,CCSC1=C(C#N)C(=O)NC(c2ccccc2O)S1 (stereo not shown) [CBK293971],128.995%
17,CC1CCCN(Cc2nc3c(c(=O)n(C)c(=O)n3C)n2CC(N)=O)C1 (stereo not shown) [CBK306064],136.761%
18,O=C(COc1ccc(S(=O)(=O)N2CCCCC2)cc1Cl)Nc1ccc2c(c1)OCCO2 [CBK269540],130.641%
19,O=C(O)CCC(NC(=O)c1ccc(-c2ccc(F)cc2)s1)C(=O)O (stereo not shown) [CBK295172],143.327%
20,CCCCc1c(O)c2ccccc2n(Cc2ccccc2)c1=O [CBK219416],112.657%
21,S=c1[nH]nc2sc3ccccc3n12 [CBK018156],128.721%
22,Cn1nccc1C1CCN(Cc2ccc(Oc3cnccn3)cc2)CC1 [CBK306400],108.341%
23,O=C(Nc1cnn(C23CC4CC(CC(C4)C2)C3)c1)c1cnn2c(C(F)(F)F)cc(-c3ccco3)nc12 [CBK268538],75.5415%
24,CN(CC1(C)COC1)C(=O)Cc1cccc2cccnc12 [CBK281963],96.5114%
25,Cc1nn2c(c1-c1ccno1)CCCCC2 [CBK007505],140.475%
26,O=C(Cn1ncc2cccn2c1=O)NCc1ccc(F)cc1 [CBK283851],127.066%
